Test results published in US20090257985A1, “METHODS OF REGULATING EXPRESSION OF GENES OR OF GENE PRODUCTS USING SUBSTITUTED TETRACYCLINE COMPOUNDS” (priority 2006, published 2009).
For at least one compound, name, drawing or mass did not settle the structure. Some compounds share one wording; it may come from a single statement.

How the values were obtained:
[1] = test system: tet operator-linked nucleotide sequence; conditions: as demonstrated in U.S. Pat. No. 5,789,156; cited from earlier work
rtTA2-MT2 = assay: rtTA-mediated gene activation, luciferase positive cell line MT2; format: cell-based; conditions: FIGS. 2A and 2B
Excerpt: FIGS. 2A-2D show a comparison of doxycycline and 9-t-butyl doxcycline in 34R and MT2 rtTA mutants. FIGS. 2A and 2B show the effect of doxycyline on 34R and MT2 mutants, respectively. FIGS. 2C and 2D show the effect of 9-t-butyl doxycycline on 34R and MT2 mutants, respectively.

Row | SMILES | increase in transcription of the target sequence [1] | strength as inducing agent [1] | specificity and luciferase activity, MT2 compared with 34R (rtTA2-MT2)
1 | CN(C)[C@@H]1C(O)=C(C(N)=O)C(=O)[C@@]2(O)C(O)=C3C(=O)c4c(O)cccc4[C@@](C)(O)[C@H]3C[C@@H]12 [Tetracycline] | about 10 fold | weaker inducing agents | 
2 | CN(C)[C@@H]1C(O)=C(C(N)=O)C(=O)[C@@]2(O)C(O)=C3C(=O)c4c(O)ccc(Cl)c4[C@@](C)(O)[C@H]3C[C@@H]12 [chlorotetracycline] | about 10 fold | weaker inducing agents | 
3 | C[C@H]1c2cccc(O)c2C(=O)C2=C(O)[C@]3(O)C(=O)C(C(N)=O)=C(O)[C@@H](N(C)C)[C@@H]3[C@@H](O)[C@@H]21 [doxycycline] |  | strong inducing agents | greater specificity and luciferase activity with MT2
4 | CN(C)[C@@H]1C(O)=C(C(N)=O)C(=O)[C@@]2(O)C(O)=C3C(=O)c4c(O)cccc4[C@@](C)(O)[C@H]3[C@H](O)[C@@H]12 [oxytetracycline] | about 10 fold | weaker inducing agents | 
